Results deposited as PubChem BioAssay AID720505 (Drosophila RNAi Screening Center, 2013)

Test: 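Fly regulators or components of the CRAC channel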 (primary screen)
Cells: Drosophila S2R+ cells
Reagents: long dsRNA against Drosophila genes
Conditions: thapsigargin (2 µM) in calcium-free buffer to empty internal stores, then 2 mM calcium added back
Read-out: 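Fluo-4 signal in 384-well plates read on a FLIPR after thapsigargin (2 µM, calcium-free) store depletion and 2 mM calcium add-back; unnormalised mean endpoint per well; screen run twice, selected wells retested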
Scale: calcium signal and retest calcium signal: higher = more calcium entry after store depletion
Call rule: 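About 1500 genes called as lowering calcium entry, by varying amounts, judged against per-plate control wells with STIM1 as positive and Rho1 as negative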
Calls: active = called as lowering calcium entry; inactive = not called
The deposit covers about 20,000 reagents; this is a random part of those that have a named target and a result. In the full data, about 2,100 (10%) got an active call. 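Raw plate signals without normalisation; calls rest on control-based scores that were not deposited; replicate 2 separates called from uncalled poorly.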 The numbers tell different reagents against one gene apart. A plus sign joins genes that one reagent is predicted to hit. No sequences are given here. Not stated in the record: the amount of reagent, the time to read-out.

no.	predicted target	reagent no.	calcium signal, replicate 1	calcium signal, replicate 2	retest calcium signal, replicate 1	retest calcium signal, replicate 2	Call
1	Rab19	1	78.5	72.6			inactive
2	Cad74A (Cadherin 74A)	1	80.8	167			inactive
3	CG30355	1	121	238			inactive
4	az2	1	184	78.7			inactive
5	Hsp83 (Heat shock protein 83)	1	86.7	135			inactive
6	dar1 (dendritic arbor reduction 1)	1	65.9	112			inactive
7	Theg (Testicular haploid expressed gene)	1	112	177			inactive
8	NaPi-T (Na[+]-dependent inorganic phosphate cotransporter)	1	144	192			inactive
9	Fur1 (Furin 1)	1	67.2	91.5			active
10	ATP6AP2 (ATPase H+ transporting accessory protein 2)	1	95.6	139			inactive
11	Tob (Transducer of ERBB2)	1	118	132			inactive
12	CG31862	1	210	90.8			inactive
13	pbl (pebble)	1	69.1	121			active
14	MstProx + Mst84Da	1	63.4	116			active
15	mEFTs (mitochondrial translation elongation factor Ts)	1	84.3	112			inactive
16	Mal-A2 (Maltase A2)	1	150	114			inactive
17	drl (derailed)	1	109	88.8			inactive
18	CG6040	1	108	248			inactive
19	Rcd1 (Reduction in Cnn dots 1)	1	151	164			inactive
20	PIP82	1	208	81.5			inactive
21	stol (stolid)	1	110	169			inactive
22	CG12502	1	102	129			inactive
23	CG12502	2	84.5	128			inactive
24	JMJD4 (Jumonji domain containing 4)	1	82.6	111			inactive
25	CG4830	1	118	84.6			inactive
26	Mnt	1	122	179			inactive
27	Mnt	2	160	104			inactive
28	CG42340	1	8704	146			inactive
29	CG42340	2	129	110			inactive
30	CG42340	3	139	91.4			inactive
31	CG42340	4	121	126			inactive
32	CG17167	1	71.3	148			active
33	CG17167	2	127	79.2			inactive
34	Srp19 (Signal recognition particle 19)	1	60.5	53.9			active
35	CG32115	1	91.4	160			inactive
36	CG13223	1	81.6	147			inactive
37	flw (flapwing)	1	71.4	104			inactive
38	flw (flapwing)	2	64.7	112			inactive
39	ouib (ouija board)	1	98.6	173			inactive
40	CG10912	1	168	84.7			inactive
41	l(2)k01209 (lethal (2) k01209)	1	181	160			inactive
42	Cox11 (Cytochrome c oxidase copper chaperone COX11)	1	94.3	147			inactive
43	Spp (Signal peptide peptidase)	1	99.7	222			inactive
44	Acp53C14c (Accessory gland protein 53C14c)	1	78	138			inactive
45	Acox57D-p (acyl-Coenzyme A oxidase at 57D proximal)	1	149	86.6			inactive
46	Drs (Drosomycin)	1	72.6	99.5			inactive
47	CG2533	1	117	91			inactive
48	CG13796 + CG31904	1	89.6	197			inactive
49	CG31769	1	69.3	78.1			active

Next part; the last 8 above are carried over.
no.	predicted target	reagent no.	calcium signal, replicate 1	calcium signal, replicate 2	retest calcium signal, replicate 1	retest calcium signal, replicate 2	Call
42	Cox11 (Cytochrome c oxidase copper chaperone COX11)	1	94.3	147			inactive
43	Spp (Signal peptide peptidase)	1	99.7	222			inactive
44	Acp53C14c (Accessory gland protein 53C14c)	1	78	138			inactive
45	Acox57D-p (acyl-Coenzyme A oxidase at 57D proximal)	1	149	86.6			inactive
46	Drs (Drosomycin)	1	72.6	99.5			inactive
47	CG2533	1	117	91			inactive
48	CG13796 + CG31904	1	89.6	197			inactive
49	CG31769	1	69.3	78.1			active
50	CG42455 + vnc	1	52.2	90.6			active
51	Mpcp1	1	197	150			inactive
52	Tspo + rempA	1	172	200			inactive
53	CG8543	1	121	107			inactive
54	CG8543	2	104	118			inactive
55	Dph2 (Diphthamide biosynthesis 2)	1	102	118			inactive
56	CG31176	1	182	117			inactive
57	CG31176	2	176	77.6			inactive
58	CG5756	1	166	126			inactive
59	Atg4b (Autophagy-related 4b)	1	87.5	92.2			inactive
60	CG4168	1	66.4	188			active
61	CG4168	2	189	80.7			inactive
62	CG4168	3	132	127			inactive
63	CG4168	4	90.7	85.5			inactive
64	CG4168	5	99.8	151			inactive
65	CG2909	1	69.6	98.4			active
66	CG5612	1	68.8	75.6			active
67	CG16779	1	117	121			inactive
68	GstE7 (Glutathione S transferase E7)	1	146	128			inactive
69	CG10903	1	123	164			inactive
70	jtb (jetboil)	1	174	119			inactive
71	PEK (pancreatic eIF-2alpha kinase)	1	85.3	125			inactive
72	AMPKalpha (AMP-activated protein kinase alpha subunit)	1	123	160			inactive
73	CG15880	1	128	163			inactive
74	CG12693	1	252	164			inactive
75	PGRP-SC2 (Peptidoglycan recognition protein SC2)	1	148	238			inactive
76	CG6885	1	76.1	123			inactive
77	tko (technical knockout)	1	110	128			inactive
78	CG8195	1	135	102			inactive
79	CG9897 + asRNA:CR42742	1	94.8	137			inactive
80	TfIIB (Transcription factor IIB)	1	170	113			inactive
81	CG9853	1	164	84	133	108	inactive
82	CG9853	2	87.3	101			inactive
83	eIF4E5 (eukaryotic translation initiation factor 4E5)	1	81	61.2			inactive
84	ush (u-shaped)	1	116	171			inactive
85	qjt (quijote)	1	91.6	125			inactive
86	CG3117	1	221	141			inactive
87	CG10864	1	200	191			inactive
88	kek4 (kekkon 4)	1	71.3	95			inactive
89	CG16717	1	106	116			inactive
90	snz (snazarus)	1	130	113			inactive
91	alpha-Man-Ib (alpha-Mannosidase class I b)	1	71.5	88.9			active
92	CG13919	1	77.2	89.8			inactive
93	CG13887	1	102	105			inactive
94	ppk9 (pickpocket 9)	1	156	88			inactive
95	ppk9 (pickpocket 9)	2	182	107			inactive
96	Mst57Db (Male-specific RNA 57Db)	1	203	125			inactive
97	Smyd4-4 (SET and MYND domain containing, class 4, member 4)	1	182	190			inactive
98	CG12010	1	65.8	123			inactive
99	Ctr1B + Poxm	1	120	106			inactive
100	Epg5 (ectopic P-granules autophagy protein 5)	1	226	149			inactive
101	CG6813	1	172	97.8			inactive
102	polo	1	109	81.3	113	96.6	inactive
103	polo	2	93.9	208			inactive
104	CG11248	1	109	101			inactive
105	CG30096	1	130	81.5			inactive
106	TfIIA-L (Transcription factor IIA L)	1	101	88.7			inactive
